Compound in this assay: Nc1ncnc2c1ncn2[C@@H]1O[C@H](COP(=O)(O)OP(=O)(O)NP(=O)(O)O)[C@@H](O)[C@H]1O [adenylyl imidodiphosphate]
The assay can be described thus: NP40-soluble protein abundance relative to vehicle (solubility fold change) (ratio); higher = more soluble protein in presence of AMP-PNP. In a few lines: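 Jurkat crude lysate prepared with a Dounce homogeniser was treated at eight concentrations spanning 0.1 to 10 mM, 10 min at room temperature then 3 min at 37 °C. Solubilisation with 0.8% NP40 and benzonase and ultracentrifugation preceded TMT labelling of the supernatant for LC-MS/MS. Fold change against the detergent-processed vehicle was determined per replicate from vsn-normalised intensities, across three independent experiments.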

By UniProt entry, the sequences of proteins in these tests, tags left out. Where a name states a change or a piece, a line headed by the entry shows the natural chain unless it says otherwise.
UniProt Q8WVE0: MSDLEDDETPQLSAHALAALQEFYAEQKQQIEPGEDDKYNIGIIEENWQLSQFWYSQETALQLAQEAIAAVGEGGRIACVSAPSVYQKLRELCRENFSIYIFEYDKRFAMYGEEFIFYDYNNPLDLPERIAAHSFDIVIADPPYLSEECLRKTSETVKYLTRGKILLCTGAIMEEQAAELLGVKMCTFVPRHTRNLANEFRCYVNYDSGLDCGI
UniProt Q92667: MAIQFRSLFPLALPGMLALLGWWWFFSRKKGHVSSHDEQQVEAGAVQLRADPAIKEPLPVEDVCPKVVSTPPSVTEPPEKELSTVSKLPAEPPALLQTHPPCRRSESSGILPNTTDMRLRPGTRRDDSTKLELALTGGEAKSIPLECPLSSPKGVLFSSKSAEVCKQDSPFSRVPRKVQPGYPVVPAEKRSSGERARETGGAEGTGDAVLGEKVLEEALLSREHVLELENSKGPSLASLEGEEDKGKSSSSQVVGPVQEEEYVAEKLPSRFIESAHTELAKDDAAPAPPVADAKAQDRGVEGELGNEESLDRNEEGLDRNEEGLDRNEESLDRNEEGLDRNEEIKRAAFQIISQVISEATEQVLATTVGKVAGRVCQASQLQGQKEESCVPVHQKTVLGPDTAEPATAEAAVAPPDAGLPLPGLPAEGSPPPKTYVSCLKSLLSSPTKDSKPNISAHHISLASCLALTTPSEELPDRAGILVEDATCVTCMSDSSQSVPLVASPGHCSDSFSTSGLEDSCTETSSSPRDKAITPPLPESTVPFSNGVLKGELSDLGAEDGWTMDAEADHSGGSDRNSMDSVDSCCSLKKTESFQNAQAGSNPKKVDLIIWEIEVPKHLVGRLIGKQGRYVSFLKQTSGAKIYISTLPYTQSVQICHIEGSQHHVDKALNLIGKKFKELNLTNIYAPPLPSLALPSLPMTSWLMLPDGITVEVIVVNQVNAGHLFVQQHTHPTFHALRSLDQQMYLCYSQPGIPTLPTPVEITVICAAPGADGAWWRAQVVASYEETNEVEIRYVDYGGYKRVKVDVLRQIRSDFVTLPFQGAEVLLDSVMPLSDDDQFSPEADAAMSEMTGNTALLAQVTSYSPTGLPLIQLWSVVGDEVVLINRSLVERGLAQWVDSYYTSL
UniProt Q8WXG6, whole entry, looked up: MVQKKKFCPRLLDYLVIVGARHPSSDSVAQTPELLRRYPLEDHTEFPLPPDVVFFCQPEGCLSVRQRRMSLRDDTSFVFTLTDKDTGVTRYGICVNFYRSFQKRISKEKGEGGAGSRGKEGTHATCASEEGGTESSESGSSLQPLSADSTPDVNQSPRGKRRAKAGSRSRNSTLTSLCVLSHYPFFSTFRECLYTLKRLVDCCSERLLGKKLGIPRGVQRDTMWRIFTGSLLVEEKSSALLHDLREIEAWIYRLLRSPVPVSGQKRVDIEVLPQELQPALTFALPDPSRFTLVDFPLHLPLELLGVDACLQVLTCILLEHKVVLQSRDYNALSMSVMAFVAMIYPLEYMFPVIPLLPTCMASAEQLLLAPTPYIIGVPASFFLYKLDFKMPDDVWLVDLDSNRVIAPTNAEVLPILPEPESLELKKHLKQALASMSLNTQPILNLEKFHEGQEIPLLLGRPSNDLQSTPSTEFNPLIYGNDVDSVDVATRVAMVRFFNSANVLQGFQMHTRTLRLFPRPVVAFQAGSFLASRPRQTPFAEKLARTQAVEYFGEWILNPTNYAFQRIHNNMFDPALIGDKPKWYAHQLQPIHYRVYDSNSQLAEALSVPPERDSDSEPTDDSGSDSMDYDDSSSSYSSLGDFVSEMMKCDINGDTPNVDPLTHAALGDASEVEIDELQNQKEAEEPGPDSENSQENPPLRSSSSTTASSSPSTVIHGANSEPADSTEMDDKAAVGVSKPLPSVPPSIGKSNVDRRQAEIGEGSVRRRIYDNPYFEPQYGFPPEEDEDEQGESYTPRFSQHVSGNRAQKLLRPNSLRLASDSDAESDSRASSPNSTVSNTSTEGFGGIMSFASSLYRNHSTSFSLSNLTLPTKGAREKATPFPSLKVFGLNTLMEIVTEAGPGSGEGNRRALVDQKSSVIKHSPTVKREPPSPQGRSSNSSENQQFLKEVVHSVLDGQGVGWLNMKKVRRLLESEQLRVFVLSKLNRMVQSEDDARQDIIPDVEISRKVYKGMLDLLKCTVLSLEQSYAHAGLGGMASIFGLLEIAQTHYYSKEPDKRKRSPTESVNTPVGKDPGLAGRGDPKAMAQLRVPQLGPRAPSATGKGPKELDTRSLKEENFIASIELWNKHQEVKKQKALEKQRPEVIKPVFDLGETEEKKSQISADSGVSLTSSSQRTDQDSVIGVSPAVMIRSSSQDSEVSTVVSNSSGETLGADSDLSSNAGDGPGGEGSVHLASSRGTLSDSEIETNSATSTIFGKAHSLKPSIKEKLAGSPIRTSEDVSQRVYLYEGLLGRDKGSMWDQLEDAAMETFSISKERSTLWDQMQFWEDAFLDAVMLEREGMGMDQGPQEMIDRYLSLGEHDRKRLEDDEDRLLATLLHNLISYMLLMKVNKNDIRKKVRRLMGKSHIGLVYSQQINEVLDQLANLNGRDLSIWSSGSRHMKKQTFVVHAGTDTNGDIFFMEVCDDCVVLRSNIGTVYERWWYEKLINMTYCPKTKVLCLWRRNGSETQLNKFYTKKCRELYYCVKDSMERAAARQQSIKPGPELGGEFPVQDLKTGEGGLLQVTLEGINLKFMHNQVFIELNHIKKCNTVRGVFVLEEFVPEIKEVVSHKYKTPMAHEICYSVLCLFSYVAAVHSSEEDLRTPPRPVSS
UniProt Q8TCD1: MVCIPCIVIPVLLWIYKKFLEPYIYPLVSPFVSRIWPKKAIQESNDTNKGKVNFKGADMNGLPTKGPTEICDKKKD
UniProt Q8NI27: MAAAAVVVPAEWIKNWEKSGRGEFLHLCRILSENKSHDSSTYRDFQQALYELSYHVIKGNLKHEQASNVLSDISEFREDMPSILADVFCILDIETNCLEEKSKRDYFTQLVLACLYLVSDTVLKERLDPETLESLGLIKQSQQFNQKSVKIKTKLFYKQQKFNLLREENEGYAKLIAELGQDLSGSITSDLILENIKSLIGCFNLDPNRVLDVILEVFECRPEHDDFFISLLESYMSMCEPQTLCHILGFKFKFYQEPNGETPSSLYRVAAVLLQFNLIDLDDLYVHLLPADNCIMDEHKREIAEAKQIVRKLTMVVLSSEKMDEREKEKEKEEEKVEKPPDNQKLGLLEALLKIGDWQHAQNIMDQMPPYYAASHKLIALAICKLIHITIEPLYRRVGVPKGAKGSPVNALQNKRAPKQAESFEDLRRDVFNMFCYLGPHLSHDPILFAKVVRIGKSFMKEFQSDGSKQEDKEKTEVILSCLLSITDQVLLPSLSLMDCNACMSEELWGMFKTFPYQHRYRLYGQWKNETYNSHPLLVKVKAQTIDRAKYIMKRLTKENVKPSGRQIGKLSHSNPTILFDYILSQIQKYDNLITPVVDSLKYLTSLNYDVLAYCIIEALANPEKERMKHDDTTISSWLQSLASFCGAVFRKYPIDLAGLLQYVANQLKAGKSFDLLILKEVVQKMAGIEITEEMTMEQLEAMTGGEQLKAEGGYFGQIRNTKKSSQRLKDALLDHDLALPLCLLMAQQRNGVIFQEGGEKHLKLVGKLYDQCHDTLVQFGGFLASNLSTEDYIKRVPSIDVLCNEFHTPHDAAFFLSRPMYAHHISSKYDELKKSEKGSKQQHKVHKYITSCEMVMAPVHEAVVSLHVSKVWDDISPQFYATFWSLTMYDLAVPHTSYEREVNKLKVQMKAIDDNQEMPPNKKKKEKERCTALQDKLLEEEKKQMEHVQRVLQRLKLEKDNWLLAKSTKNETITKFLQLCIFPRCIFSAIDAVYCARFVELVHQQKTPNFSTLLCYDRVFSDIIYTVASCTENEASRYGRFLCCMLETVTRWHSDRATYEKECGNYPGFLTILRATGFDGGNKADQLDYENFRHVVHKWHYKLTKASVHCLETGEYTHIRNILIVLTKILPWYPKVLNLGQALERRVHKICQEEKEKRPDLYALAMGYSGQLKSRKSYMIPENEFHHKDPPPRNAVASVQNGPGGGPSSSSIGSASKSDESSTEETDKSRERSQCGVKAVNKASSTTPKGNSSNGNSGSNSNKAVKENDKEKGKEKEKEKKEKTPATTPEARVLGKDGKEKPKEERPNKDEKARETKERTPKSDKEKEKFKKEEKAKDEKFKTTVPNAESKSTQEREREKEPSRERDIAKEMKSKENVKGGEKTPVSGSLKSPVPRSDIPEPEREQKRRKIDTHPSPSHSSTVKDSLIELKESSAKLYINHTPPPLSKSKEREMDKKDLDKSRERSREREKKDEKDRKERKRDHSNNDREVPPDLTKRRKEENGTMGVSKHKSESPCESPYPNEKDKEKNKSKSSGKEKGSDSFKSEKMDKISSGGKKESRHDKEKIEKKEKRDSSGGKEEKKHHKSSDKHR
UniProt Q8WYN0: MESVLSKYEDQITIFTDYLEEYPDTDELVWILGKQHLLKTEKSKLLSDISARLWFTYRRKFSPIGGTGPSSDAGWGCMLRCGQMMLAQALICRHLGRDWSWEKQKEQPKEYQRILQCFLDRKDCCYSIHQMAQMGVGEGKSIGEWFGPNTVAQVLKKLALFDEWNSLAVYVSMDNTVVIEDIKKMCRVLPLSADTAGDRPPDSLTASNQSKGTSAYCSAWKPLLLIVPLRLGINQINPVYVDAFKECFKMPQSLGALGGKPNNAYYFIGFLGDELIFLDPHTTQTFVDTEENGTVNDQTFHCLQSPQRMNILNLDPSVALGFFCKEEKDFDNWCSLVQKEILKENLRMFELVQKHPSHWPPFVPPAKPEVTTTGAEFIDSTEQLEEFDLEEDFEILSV
UniProt Q8WXX5: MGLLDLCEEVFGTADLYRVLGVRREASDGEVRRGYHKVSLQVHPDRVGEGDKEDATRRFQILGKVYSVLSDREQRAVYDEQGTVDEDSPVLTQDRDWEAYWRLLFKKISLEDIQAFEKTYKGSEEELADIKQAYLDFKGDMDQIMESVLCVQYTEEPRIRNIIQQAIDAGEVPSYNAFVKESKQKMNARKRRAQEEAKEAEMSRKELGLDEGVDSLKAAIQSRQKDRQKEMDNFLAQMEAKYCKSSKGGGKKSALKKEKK
UniProt Q8TD30: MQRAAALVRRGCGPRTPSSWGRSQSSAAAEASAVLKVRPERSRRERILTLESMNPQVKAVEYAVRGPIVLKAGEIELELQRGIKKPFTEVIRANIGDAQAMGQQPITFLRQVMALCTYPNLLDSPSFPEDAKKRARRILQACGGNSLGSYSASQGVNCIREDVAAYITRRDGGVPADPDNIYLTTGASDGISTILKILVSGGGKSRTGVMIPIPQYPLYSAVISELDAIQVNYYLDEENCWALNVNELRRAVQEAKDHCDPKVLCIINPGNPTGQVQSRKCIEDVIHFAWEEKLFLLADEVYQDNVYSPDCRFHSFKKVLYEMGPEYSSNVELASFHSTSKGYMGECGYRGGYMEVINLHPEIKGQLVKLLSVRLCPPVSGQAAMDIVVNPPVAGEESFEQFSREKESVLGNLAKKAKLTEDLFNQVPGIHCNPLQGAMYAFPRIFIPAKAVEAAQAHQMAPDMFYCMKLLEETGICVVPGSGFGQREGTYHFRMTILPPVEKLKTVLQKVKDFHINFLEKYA
UniProt Q8WZ82: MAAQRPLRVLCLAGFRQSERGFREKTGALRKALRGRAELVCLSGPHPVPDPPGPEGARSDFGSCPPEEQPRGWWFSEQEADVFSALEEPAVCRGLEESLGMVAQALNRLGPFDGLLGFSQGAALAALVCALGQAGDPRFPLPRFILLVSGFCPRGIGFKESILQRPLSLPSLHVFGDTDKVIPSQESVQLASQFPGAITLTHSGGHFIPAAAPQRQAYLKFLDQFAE
UniProt Q92466: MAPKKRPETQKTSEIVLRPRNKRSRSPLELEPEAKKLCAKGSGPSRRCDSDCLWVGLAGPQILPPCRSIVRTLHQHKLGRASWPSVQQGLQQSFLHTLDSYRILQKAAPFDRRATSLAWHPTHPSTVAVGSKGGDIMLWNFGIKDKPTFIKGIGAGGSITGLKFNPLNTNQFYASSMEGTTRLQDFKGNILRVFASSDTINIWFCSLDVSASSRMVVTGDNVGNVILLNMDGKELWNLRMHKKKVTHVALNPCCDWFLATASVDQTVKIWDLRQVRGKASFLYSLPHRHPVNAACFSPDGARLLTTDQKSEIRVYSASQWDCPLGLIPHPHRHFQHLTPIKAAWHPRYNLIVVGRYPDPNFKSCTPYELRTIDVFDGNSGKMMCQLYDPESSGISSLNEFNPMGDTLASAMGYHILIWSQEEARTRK
UniProt Q8NEJ9: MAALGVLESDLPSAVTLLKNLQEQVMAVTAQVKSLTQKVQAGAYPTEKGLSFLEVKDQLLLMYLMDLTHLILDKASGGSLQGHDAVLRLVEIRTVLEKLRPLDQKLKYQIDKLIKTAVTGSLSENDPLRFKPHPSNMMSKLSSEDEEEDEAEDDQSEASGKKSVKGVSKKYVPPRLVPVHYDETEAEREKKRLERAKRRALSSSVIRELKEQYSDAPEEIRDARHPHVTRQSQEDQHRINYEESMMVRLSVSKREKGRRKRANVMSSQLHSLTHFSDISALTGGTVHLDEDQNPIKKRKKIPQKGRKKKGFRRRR

± gives the standard deviation of the averaged measurements. This is a selection; strong and weak results do not stand in their true shares. Small differences around the control level are noise.

GIMAP7 (UniProt Q8NHV1): the NP40-soluble protein abundance was 0.971 ± 0.052 (concentration: 0.1mM) and 0.946 ± 0.04 (concentration: 0.5mM).
On the same counts, the results for UniProt Q8WUQ7 and related entries are 0.978 ± 0.026 and 1.02 ± 0.014.
Regarding GTF3C2 (UniProt Q8WUA4), the NP40-soluble protein abundance is, setting by setting: (concentration: 0.1mM) 0.973 ± 0.014; (concentration: 0.5mM) 0.953 ± 0.024.
On the same counts, the results for UniProt Q8WVK7 are 0.995 ± 0.041 and 1.02 ± 0.076.
As to UniProt Q8WVE0, the NP40-soluble protein abundance was determined as 1.01 ± 0.035 (concentration: 0.1mM) and 0.961 ± 0.013 (concentration: 0.5mM).
On the same counts, the results for SRFBP1 (UniProt Q8NEF9) are 0.983 ± 0.016 and 1.03 ± 0.085.
In the case of AKAP1 (UniProt Q92667), the NP40-soluble protein abundance by setting is: (concentration: 0.1mM) 0.964 ± 0.032; (concentration: 0.5mM) 0.993 ± 0.036.
In the same order, the values of RBM15B (UniProt Q8NDT2) are 1.01 ± 0.018 and 1.03 ± 0.048.
On the same counts, the results for UniProt Q8TAA9 and related entries are 0.983 ± 0.041 and 1.01 ± 0.019.
As for UniProt Q8WWW0 and related entries, the NP40-soluble protein abundance reads like this: (concentration: 0.1mM) 1 ± 0.016; (concentration: 0.5mM) 0.996 ± 0.019.
On to PIEZO1 (UniProt Q92508), for which the NP40-soluble protein abundance worked out at 1.018 ± 0.0089 (concentration: 0.1mM) and 0.992 ± 0.02 (concentration: 0.5mM).
On the same counts, the results for UniProt Q8WWC4 are 1.04 ± 0.029 and 0.981 ± 0.076.
On the same counts, the results for NUP37 (UniProt Q8NFH4) are 1.02 ± 0.046 and 1.01 ± 0.063.
On the same counts, the results for NT5C (UniProt Q8TCD5) are 1.03 ± 0.046 and 0.983 ± 0.016.
Consider RDH11 (UniProt Q8TC12), for which the NP40-soluble protein abundance by setting is: (concentration: 0.1mM) 0.989 ± 0.019; (concentration: 0.5mM) 0.989 ± 0.1.
As for UniProt Q92878 and related entries, the NP40-soluble protein abundance reads like this: (concentration: 0.1mM) 1 ± 0.025; (concentration: 0.5mM) 1.01 ± 0.049.
On the same counts, the results for ENGASE (UniProt Q8NFI3) are 1.03 ± 0.067 and 0.977 ± 0.064.
As to UniProt Q92851 and related entries, the NP40-soluble protein abundance runs as follows: (concentration: 0.1mM) 0.992 ± 0.019; (concentration: 0.5mM) 0.972 ± 0.032.
On the same counts, the results for UniProt Q8ND82 and related entries are 0.984 ± 0.018 and 1.03 ± 0.025.
On the same counts, the results for SORL1 (UniProt Q92673) are 0.9892 ± 0.006 and 1 ± 0.031.
In the same order, the values of “UniProt Q8WXG6-4|Q8WXG6-5|Q8WXG6-6|Q8WXG6-7|Q8WXG6-8|Q8WXG6” are 1.01 ± 0.028 and 1.02 ± 0.026.
Turning to C18orf32 (UniProt Q8TCD1), the NP40-soluble protein abundance reads like this: (concentration: 0.1mM) 0.95692 ± 0.00012; (concentration: 0.5mM) 0.973 ± 0.01.
In the same order, the values of THOC2 (UniProt Q8NI27) are 1.2 ± 0.054 and 1.25 ± 0.13.
On the same counts, the results for UniProt Q8TAV0 and related entries are 1.01 ± 0.024 and 1.01 ± 0.02.
In the same order, the values of SNRNP27 (UniProt Q8WVK2) are 0.9976 ± 0.0019 and 0.991 ± 0.037.
On to UniProt Q92609 and related entries, for which the NP40-soluble protein abundance by setting is: (concentration: 0.1mM) 1 ± 0.017; (concentration: 0.5mM) 1.01 ± 0.043.
In the same order, the values of CHMP7 (UniProt Q8WUX9) are 0.948 ± 0.03 and 0.998 ± 0.031.
In the same order, the values of UniProt Q8NHY2 and related entries are 0.9969 ± 0.0085 and 0.994 ± 0.011.
In the same order, the values of UBLCP1 (UniProt Q8WVY7) are 1.01 ± 0.067 and 1.02 ± 0.075.
As for UniProt Q8WYN0 and related entries, the NP40-soluble protein abundance (concentration: 0.1mM) is 0.999 ± 0.013 and the NP40-soluble protein abundance (concentration: 0.5mM) stood at 1.03 ± 0.021.
On the same counts, the results for SEMA4D (UniProt Q92854) are 0.997 ± 0.035 and 1 ± 0.053.
For the target FBXO30 (UniProt Q8TB52), the NP40-soluble protein abundance reads like this: (concentration: 0.1mM) 1.009 ± 0.0054; (concentration: 0.5mM) 0.988 ± 0.03.
On the same counts, the results for UniProt Q8TD55 and related entries are 0.9858 ± 0.0052 and 0.987 ± 0.015.
On to UniProt Q92918-2|K7ER95, for which the NP40-soluble protein abundance was 1.03 ± 0.023 (concentration: 0.1mM) and 1 ± 0.051 (concentration: 0.5mM).
In the same order, the values of UniProt Q8TEB1 and related entries are 1 ± 0.064 and 1.01 ± 0.022.
On the same counts, the results for LPCAT1 (UniProt Q8NF37) are 0.963 ± 0.02 and 0.95 ± 0.062.
Take C15orf40 (UniProt Q8WUR7): the NP40-soluble protein abundance was 0.984 ± 0.024 (concentration: 0.1mM) and 1.02 ± 0.025 (concentration: 0.5mM).
In the same order, the values of PIBF1 (UniProt Q8WXW3) are 0.9824 ± 0.0037 and 0.984 ± 0.061.
With UniProt Q92793 and related entries, the NP40-soluble protein abundance runs as follows: (concentration: 0.1mM) 1.05 ± 0.059; (concentration: 0.5mM) 1.04 ± 0.028.
On the same counts, the results for DNAJC9 (UniProt Q8WXX5) are 1.03 ± 0.013 and 1.01 ± 0.021.
Regarding GPT2 (UniProt Q8TD30), the NP40-soluble protein abundance amounted to 1.01 ± 0.035 (concentration: 0.1mM) and 0.9683 ± 0.007 (concentration: 0.5mM).
In the same order, the values of TFB1M (UniProt Q8WVM0) are 1 ± 0.06 and 0.986 ± 0.074.
In the same order, the values of UniProt Q92636 and related entries are 0.981 ± 0.029 and 0.992 ± 0.066.
On the same counts, the results for OVCA2 (UniProt Q8WZ82) are 0.9978 ± 0.0078 and 1.009 ± 0.0035.
For the target SCFD1 (UniProt Q8WVM8), the NP40-soluble protein abundance by setting is: (concentration: 0.1mM) 0.983 ± 0.023; (concentration: 0.5mM) 0.986 ± 0.032.
In the same order, the values of UniProt Q8NFH5 and related entries are 1.01 ± 0.0076 and 1.01 ± 0.022.
In the same order, the values of KIF18A (UniProt Q8NI77) are 1.02 ± 0.038 and 1.03 ± 0.077.
On the same counts, the results for UniProt Q8TD16 and related entries are 0.993 ± 0.018 and 0.999 ± 0.042.
With UniProt Q92804 and related entries, the NP40-soluble protein abundance reads like this: (concentration: 0.1mM) 1.07 ± 0.097; (concentration: 0.5mM) 1.03 ± 0.062.
For the target CXorf38 (UniProt Q8TB03), the NP40-soluble protein abundance amounted to 1.006 ± 0.0066 (concentration: 0.1mM) and 0.984 ± 0.024 (concentration: 0.5mM).
In the case of UniProt Q92567 and related entries, the NP40-soluble protein abundance (concentration: 0.1mM) came out at 1.011 ± 0.0027 and the NP40-soluble protein abundance (concentration: 0.5mM) was determined as 1 ± 0.019.
On the same counts, the results for UniProt Q92619 are 1 ± 0.034 and 1.01 ± 0.025.
On the same counts, the results for PI4K2B (UniProt Q8TCG2) are 0.991 ± 0.011 and 0.984 ± 0.02.
In the same order, the values of DDB2 (UniProt Q92466) are 0.981 ± 0.016 and 0.971 ± 0.072.
As for UniProt Q92615, the NP40-soluble protein abundance is 1.02 ± 0.021 (concentration: 0.1mM) and 1.02 ± 0.039 (concentration: 0.5mM).
In the same order, the values of UniProt Q8NEJ9 and related entries are 0.985 ± 0.058 and 0.9915 ± 0.0094.
UniProt Q8NFC6: the NP40-soluble protein abundance runs as follows: (concentration: 0.1mM) 1 ± 0.027; (concentration: 0.5mM) 0.999 ± 0.043.
As for RTN4IP1 (UniProt Q8WWV3), the NP40-soluble protein abundance was 0.993 ± 0.049 (concentration: 0.1mM) and 0.956 ± 0.055 (concentration: 0.5mM).
On the same counts, the results for UniProt Q92900 and related entries are 1 ± 0.027 and 0.98 ± 0.08.
Take FAR1 (UniProt Q8WVX9): the NP40-soluble protein abundance (concentration: 0.1mM) is 1.02 ± 0.06 and the NP40-soluble protein abundance (concentration: 0.5mM) came out at 1 ± 0.053.

These data come from the supplement of paper PMC6411743.
